For one molecule, binding results are on record in article PMC8894357 (2022).

These are yes or no findings as the source states them, for the method shown. Some binding calls cover weakened binding; strength is not graded here. For some assays here: Where a sequence is shown, tags or fusion partners need not be part of it.

Test [1] addresses T1, αE-catenin, monomeric fraction (mouse, full length, His(6x) tagged) (mouse), P26231.
T1 chain: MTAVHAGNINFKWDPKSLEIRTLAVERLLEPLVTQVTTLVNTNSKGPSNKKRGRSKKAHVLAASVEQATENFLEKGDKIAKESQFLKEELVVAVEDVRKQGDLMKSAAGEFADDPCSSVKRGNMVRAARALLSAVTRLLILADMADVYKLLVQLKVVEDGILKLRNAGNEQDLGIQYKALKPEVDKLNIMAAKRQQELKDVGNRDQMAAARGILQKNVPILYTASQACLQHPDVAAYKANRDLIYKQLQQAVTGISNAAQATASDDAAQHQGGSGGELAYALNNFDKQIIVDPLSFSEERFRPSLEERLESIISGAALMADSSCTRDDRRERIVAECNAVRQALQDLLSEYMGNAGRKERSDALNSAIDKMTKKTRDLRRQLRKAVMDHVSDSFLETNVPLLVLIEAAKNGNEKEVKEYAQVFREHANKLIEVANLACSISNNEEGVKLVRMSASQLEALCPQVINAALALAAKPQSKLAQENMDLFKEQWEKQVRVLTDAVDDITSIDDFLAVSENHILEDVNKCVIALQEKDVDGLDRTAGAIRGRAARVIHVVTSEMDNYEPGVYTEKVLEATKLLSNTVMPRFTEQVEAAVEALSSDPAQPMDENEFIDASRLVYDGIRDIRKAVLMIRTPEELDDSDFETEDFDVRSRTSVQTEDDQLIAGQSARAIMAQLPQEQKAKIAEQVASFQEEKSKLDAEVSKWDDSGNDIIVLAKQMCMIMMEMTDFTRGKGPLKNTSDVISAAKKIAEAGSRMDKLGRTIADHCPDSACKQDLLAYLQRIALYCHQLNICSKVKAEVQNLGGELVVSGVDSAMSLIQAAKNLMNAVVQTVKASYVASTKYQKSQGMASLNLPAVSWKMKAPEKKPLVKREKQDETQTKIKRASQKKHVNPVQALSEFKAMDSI
The experiment in a line: SEC; HiLoad Superdex 200, 25 mM Tris pH 7.5, 150 mM NaCl, 1 mM DTT; monomeric and homodimeric fractions pooled separately; both purified. Conditions: remark: other sources report otherwise. For orientation: SEC sorts molecules by how far they enter the pores of the column.

Test [2] addresses T2, Human β-catenin, GST tagged (human, UniProt P35222 1-781).
T2 chain: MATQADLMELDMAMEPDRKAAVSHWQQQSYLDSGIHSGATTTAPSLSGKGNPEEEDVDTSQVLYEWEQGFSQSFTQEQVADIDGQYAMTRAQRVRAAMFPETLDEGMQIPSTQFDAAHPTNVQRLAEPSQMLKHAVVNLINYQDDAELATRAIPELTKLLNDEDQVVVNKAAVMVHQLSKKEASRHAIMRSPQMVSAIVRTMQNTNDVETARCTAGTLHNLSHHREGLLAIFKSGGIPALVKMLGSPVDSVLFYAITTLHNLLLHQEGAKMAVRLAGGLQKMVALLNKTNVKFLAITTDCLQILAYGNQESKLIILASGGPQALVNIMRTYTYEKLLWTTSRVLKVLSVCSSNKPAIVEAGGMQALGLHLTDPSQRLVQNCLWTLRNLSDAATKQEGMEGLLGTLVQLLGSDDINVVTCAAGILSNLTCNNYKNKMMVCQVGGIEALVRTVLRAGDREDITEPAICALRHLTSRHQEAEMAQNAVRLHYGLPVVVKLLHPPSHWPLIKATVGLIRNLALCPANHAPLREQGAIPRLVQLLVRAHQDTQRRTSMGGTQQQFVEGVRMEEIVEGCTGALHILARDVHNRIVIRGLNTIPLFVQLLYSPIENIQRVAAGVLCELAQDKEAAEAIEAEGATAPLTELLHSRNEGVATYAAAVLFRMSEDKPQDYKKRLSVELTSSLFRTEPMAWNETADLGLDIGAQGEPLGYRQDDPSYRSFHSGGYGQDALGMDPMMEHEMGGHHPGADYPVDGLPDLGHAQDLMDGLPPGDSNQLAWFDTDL
The experiment in a line: ultrafast force-clamp spectroscopy (optical tweezers); single α-β-catenin heterodimer: β-catenin 80 μg/ml on the nitrocellulose-coated silica bead, then αE-catenin 4 μg/ml for 5 min; F-actin dumbbell under constant force, one dumbbell; 20 mM MOPS pH 7.2, 50 mM KCl, 1 mM MgCl2, 0.1 mM EGTA, 20 mM DTT; both purified.

B1: αE-catenin, monomeric fraction (mouse, full length, His(6x) tagged) (natural protein)
chain: MTAVHAGNINFKWDPKSLEIRTLAVERLLEPLVTQVTTLVNTNSKGPSNKKRGRSKKAHVLAASVEQATENFLEKGDKIAKESQFLKEELVVAVEDVRKQGDLMKSAAGEFADDPCSSVKRGNMVRAARALLSAVTRLLILADMADVYKLLVQLKVVEDGILKLRNAGNEQDLGIQYKALKPEVDKLNIMAAKRQQELKDVGNRDQMAAARGILQKNVPILYTASQACLQHPDVAAYKANRDLIYKQLQQAVTGISNAAQATASDDAAQHQGGSGGELAYALNNFDKQIIVDPLSFSEERFRPSLEERLESIISGAALMADSSCTRDDRRERIVAECNAVRQALQDLLSEYMGNAGRKERSDALNSAIDKMTKKTRDLRRQLRKAVMDHVSDSFLETNVPLLVLIEAAKNGNEKEVKEYAQVFREHANKLIEVANLACSISNNEEGVKLVRMSASQLEALCPQVINAALALAAKPQSKLAQENMDLFKEQWEKQVRVLTDAVDDITSIDDFLAVSENHILEDVNKCVIALQEKDVDGLDRTAGAIRGRAARVIHVVTSEMDNYEPGVYTEKVLEATKLLSNTVMPRFTEQVEAAVEALSSDPAQPMDENEFIDASRLVYDGIRDIRKAVLMIRTPEELDDSDFETEDFDVRSRTSVQTEDDQLIAGQSARAIMAQLPQEQKAKIAEQVASFQEEKSKLDAEVSKWDDSGNDIIVLAKQMCMIMMEMTDFTRGKGPLKNTSDVISAAKKIAEAGSRMDKLGRTIADHCPDSACKQDLLAYLQRIALYCHQLNICSKVKAEVQNLGGELVVSGVDSAMSLIQAAKNLMNAVVQTVKASYVASTKYQKSQGMASLNLPAVSWKMKAPEKKPLVKREKQDETQTKIKRASQKKHVNPVQALSEFKAMDSI
Turning to B1, the binding result in test [1] and in test [2] was “binds” throughout.
